From paper PMC10603098
Results are given in words; binding and its absence hold for the method and conditions named. Binding seen in cells or lysates may run through a third protein. Here binding means that the protein was enriched with, or labelled near, the bait; the list need not be complete.

Amino acid sequences for entries named in this document (tags omitted). Residues count along the entry.
UniProt D3ZK93: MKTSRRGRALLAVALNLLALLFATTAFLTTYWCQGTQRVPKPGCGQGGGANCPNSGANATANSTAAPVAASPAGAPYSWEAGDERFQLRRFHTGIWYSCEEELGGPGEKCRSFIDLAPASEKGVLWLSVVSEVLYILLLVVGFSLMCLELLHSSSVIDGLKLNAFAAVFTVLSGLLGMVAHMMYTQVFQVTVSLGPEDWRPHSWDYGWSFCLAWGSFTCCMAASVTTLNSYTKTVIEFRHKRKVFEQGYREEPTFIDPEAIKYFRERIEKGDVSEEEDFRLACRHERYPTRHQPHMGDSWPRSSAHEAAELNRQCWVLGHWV
UniProt P19490, residues 19-907: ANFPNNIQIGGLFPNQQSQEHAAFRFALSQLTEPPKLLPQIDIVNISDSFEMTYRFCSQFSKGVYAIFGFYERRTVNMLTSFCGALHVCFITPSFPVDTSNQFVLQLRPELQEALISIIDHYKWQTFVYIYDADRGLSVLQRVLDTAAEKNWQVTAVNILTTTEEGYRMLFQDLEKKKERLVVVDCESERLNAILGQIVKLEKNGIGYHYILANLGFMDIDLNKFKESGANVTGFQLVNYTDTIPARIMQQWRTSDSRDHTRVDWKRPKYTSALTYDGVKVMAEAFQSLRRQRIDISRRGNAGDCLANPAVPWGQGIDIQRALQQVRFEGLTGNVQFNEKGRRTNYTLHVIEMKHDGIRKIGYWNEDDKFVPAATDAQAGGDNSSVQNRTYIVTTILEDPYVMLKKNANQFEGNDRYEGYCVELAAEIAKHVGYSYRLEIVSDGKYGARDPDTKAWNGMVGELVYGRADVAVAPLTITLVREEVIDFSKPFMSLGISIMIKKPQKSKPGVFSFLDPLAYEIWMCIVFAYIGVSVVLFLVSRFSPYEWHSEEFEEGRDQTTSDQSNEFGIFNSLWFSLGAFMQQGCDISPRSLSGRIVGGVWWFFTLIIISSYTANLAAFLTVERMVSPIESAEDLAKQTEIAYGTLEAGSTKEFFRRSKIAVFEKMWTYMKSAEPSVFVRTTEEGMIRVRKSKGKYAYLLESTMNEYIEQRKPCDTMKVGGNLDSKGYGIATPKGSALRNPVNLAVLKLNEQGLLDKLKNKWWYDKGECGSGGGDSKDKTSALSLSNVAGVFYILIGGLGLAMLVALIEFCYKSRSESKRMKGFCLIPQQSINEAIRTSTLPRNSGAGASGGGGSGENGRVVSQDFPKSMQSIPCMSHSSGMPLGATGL
UniProt P19492, residues 23-888: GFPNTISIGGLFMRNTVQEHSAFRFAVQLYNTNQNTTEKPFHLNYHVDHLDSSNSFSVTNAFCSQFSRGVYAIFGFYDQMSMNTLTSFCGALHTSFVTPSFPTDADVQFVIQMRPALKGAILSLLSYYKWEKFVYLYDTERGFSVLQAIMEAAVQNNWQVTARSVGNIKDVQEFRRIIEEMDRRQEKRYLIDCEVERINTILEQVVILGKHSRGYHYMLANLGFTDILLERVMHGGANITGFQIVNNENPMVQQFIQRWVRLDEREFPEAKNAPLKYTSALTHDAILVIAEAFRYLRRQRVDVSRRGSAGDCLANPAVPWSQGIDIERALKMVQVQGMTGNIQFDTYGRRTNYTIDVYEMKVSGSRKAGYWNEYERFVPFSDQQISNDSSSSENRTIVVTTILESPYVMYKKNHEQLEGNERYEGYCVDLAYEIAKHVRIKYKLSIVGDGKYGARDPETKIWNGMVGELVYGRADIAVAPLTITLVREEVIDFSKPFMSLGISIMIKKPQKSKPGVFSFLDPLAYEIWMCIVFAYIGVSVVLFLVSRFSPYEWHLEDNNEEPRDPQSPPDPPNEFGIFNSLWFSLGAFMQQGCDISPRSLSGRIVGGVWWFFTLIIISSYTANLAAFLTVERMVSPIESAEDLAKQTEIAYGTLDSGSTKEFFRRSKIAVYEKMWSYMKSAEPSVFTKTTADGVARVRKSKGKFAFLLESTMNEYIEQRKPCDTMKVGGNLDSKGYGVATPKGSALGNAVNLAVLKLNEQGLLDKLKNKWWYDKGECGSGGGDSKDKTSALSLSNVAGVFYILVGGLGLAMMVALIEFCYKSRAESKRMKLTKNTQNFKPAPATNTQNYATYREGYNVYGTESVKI
UniProt P19493, residues 21-902: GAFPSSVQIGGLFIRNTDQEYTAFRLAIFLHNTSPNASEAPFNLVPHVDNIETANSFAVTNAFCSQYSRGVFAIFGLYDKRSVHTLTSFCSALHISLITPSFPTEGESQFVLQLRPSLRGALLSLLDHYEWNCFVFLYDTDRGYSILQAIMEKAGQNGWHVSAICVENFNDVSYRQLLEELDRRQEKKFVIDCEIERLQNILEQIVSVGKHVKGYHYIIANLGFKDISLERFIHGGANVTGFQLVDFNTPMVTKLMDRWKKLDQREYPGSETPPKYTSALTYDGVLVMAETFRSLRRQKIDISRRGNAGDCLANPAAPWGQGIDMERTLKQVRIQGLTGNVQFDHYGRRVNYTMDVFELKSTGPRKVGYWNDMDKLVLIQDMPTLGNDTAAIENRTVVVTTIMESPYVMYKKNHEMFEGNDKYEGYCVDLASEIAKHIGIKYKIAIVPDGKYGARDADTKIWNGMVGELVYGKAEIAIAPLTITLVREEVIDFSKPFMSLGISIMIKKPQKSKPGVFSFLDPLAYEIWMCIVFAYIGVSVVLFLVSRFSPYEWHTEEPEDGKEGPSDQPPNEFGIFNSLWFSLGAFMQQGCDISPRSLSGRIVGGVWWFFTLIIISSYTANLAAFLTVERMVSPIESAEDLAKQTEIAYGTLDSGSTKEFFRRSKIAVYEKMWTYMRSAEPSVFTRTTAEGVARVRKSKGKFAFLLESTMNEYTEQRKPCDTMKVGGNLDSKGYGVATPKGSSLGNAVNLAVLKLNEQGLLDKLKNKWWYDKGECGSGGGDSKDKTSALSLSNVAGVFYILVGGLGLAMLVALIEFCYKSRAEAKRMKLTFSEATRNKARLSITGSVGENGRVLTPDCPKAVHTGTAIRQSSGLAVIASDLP
UniProt Q6MG82: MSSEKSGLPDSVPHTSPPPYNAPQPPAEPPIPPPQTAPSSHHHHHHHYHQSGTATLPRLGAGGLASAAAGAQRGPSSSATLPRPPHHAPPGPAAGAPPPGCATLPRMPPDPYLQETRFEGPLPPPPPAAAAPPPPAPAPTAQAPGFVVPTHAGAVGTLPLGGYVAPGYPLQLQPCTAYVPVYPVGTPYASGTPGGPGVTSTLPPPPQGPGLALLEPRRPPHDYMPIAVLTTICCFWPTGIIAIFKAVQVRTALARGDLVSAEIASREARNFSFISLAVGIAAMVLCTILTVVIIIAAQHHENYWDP
UniProt Q71RJ2: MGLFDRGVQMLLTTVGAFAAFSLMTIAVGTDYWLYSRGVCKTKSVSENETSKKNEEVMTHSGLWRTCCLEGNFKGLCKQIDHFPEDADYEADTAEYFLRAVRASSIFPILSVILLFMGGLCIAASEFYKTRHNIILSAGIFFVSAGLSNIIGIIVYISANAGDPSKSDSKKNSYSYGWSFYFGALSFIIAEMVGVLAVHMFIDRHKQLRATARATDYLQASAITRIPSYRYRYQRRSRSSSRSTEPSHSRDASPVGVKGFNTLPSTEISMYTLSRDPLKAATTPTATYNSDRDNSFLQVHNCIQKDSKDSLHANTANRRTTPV

Target: germ cell-specific gene 1-like protein (GSG1L) (rat (endogenous in rat brain)) (UniProt D3ZK93)
Assay: affinity purification with mass spectrometry; multi-epitope AP-MS: three polyclonal anti-GSG1L antibodies on protein A Dynabeads, 2 h; membranes of adult (P59) rat brain solubilised in CL-47; GSG1L KO rats as negative control; minimum tnR of 0.25 as indicator of specific interaction

| binding | Substance |
| --- | --- |
| binds | GluA1 (AMPA receptor pore-forming subunit) (from UniProt P19490 19-907) |
| binds | GluA3 (AMPA receptor pore-forming subunit) (from UniProt P19492 23-888) |

More lines, now with the values behind:

| Substance | binding |
| --- | --- |
| GluA4 (AMPA receptor pore-forming subunit) (from UniProt P19493 21-902) | binds |
| proline-rich transmembrane protein 1 (PRRT1) (from UniProt Q6MG82 1-306) | binds |
| transmembrane AMPAR regulatory protein γ2 (TARP γ2), rat brain (from UniProt Q71RJ2 1-323) | binds |
